Among the data in article PMC2835750, “A Direct Interaction with NEDD1 Regulates γ-Tubulin Recruitment to the Centrosome” (PLoS ONE, 2010) are binding values, retold here.

Sequences of proteins named here, by UniProt entry; tags and fusion partners are left off. A change or cut given only in a name is not applied to a line headed by its entry. A line that says so, or that is headed by a name, gives the form on record, which may keep a tag or linker. Residues count along the entry.
UniProt Q8NHV4: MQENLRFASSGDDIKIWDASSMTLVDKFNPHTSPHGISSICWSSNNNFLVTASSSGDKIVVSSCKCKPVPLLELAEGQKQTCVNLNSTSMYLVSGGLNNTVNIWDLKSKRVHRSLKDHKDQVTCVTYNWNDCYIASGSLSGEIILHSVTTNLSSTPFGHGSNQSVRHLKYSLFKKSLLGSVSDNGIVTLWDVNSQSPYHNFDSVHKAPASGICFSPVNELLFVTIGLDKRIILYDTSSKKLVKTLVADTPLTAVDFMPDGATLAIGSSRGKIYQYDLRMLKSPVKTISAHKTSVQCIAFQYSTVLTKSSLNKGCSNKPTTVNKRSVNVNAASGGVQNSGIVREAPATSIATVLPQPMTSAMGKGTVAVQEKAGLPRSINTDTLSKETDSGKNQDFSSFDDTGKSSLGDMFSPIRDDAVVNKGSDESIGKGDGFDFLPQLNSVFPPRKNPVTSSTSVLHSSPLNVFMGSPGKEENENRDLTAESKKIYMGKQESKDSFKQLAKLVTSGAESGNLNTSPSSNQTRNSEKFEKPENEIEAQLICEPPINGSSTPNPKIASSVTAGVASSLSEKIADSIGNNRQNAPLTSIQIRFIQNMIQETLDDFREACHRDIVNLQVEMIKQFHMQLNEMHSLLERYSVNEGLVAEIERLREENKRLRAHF
Myc-NEDD1 (1–571): residues 1-571 of Q8NHV4
GST-NEDD1 CTD (residues 572–660): residues 572-660 of Q8NHV4
GFP-NEDD1 (572–634): residues 572-634 of Q8NHV4
GFP-NEDD1 (586–660): residues 586-660 of Q8NHV4
GFP-NEDD1 (residues 599–660): residues 599-660 of Q8NHV4
GFP-NEDD1 (611–660): residues 611-660 of Q8NHV4
GFP-NEDD1 (635–660): residues 635-660 of Q8NHV4
GFP-NEDD1 CTD E634A/R635A (Q8NHV4, form named): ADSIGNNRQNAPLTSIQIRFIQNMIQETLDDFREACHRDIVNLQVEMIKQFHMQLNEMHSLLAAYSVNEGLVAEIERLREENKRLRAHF
GFP-NEDD1 CTD N639A/E640A (Q8NHV4, form named): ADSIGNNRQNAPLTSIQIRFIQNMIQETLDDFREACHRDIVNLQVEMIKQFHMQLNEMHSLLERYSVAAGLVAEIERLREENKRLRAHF
GFP-NEDD1 CTD Y636A/S637A (Q8NHV4, form named): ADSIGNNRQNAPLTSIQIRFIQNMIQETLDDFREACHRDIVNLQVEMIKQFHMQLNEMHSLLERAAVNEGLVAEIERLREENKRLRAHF
UniProt P23258: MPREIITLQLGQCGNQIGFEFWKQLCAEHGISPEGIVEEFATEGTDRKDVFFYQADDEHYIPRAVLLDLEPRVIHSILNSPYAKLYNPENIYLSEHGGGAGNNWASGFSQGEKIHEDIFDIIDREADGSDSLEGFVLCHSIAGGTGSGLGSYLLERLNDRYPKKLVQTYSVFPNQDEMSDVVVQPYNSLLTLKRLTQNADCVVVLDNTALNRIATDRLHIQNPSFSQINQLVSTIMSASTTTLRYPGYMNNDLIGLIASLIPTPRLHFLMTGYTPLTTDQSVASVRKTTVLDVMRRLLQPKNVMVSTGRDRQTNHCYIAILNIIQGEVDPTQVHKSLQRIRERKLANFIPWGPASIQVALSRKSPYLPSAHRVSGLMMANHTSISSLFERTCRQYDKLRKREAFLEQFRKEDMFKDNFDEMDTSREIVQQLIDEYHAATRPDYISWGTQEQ

Assay [1] addresses GST-NEDD1 CTD (residues 572–660) (human) (UniProt Q8NHV4). Description: pull-down; GST or GST-NEDD1 CTD on glutathione sepharose beads, endogenous γ-tubulin from 50 µg pre-cleared HEK293T lysate, overnight at 4°C, NTEN buffer; only the target purified.
Assay [2] deals with NEDD1 (endogenous) (human (endogenous in HEK293T)) (UniProt Q8NHV4). Description: co-IP; endogenous proteins, HEK293T lysate, immunoprecipitated with NEDD1 antibody, blotted for γ-tubulin.
The target in assay [3] is GFP-NEDD1 (611–660) (human) (UniProt Q8NHV4). Description: co-IP; GFP-NEDD1 constructs transfected into HEK293T, immunoprecipitated with GFP antibody, blotted for endogenous γ-tubulin.
The target of assay [4] is GFP-NEDD1 (635–660) (human) (UniProt Q8NHV4). The description is as above.
Assay [5] deals with GFP-NEDD1 CTD E634A/R635A (human) (UniProt Q8NHV4). The description is as above.
The target of assay [6] is GFP-NEDD1 (586–660) (human) (UniProt Q8NHV4). The description is as above.
For assay [7], the target named is GFP-NEDD1 (residues 599–660) (human) (UniProt Q8NHV4). Described as above.
In assay [8] the target is GFP-NEDD1 (572–634) (human) (UniProt Q8NHV4). Described as above.
In assay [9] the target is GFP-NEDD1 (1–571) (human) (UniProt Q8NHV4). The description is as above.
In assay [10] the target is GFP-NEDD1 CTD N639A/E640A (human) (UniProt Q8NHV4). The assay is described as above.
Assay [11] deals with GFP-NEDD1 full length (1–660) (human) (UniProt Q8NHV4). The assay is described as above.
Assay [12] concerns the target GFP-NEDD1 CTD (572–660) (human) (UniProt Q8NHV4). The description is as above.
Assay [13] concerns the target GFP-NEDD1 CTD Y636A/S637A (human) (UniProt Q8NHV4). The assay is described as above.
In assay [14] the target is Myc-NEDD1 (1–571) (human) (UniProt Q8NHV4). Description: co-IP; Myc-NEDD1 constructs transfected into HEK293T, immunoprecipitated with Myc antibody, blotted for endogenous γ-tubulin.
Assay [15] concerns the target Myc-NEDD1 full length (660 aa) (human) (UniProt Q8NHV4). The assay is described as above.
Assay [16] addresses Myc-NEDD1 full length L649Q (human) (UniProt Q8NHV4). The description is as above.
Assay [17] has as its target Myc-NEDD1 (572–660) (human) (UniProt Q8NHV4). Described as above.
The target in assay [18] is Myc-NEDD1 full length L656Q (human) (UniProt Q8NHV4). The description is as above.
Assay [19] deals with GST-NEDD1 CTD (residues 572–660) (human) (UniProt Q8NHV4). Description: pull-down; GST or GST-NEDD1 CTD on glutathione sepharose beads, 2.5 µg purified His-γ-tubulin, with or without 50 µg pre-cleared HEK293T lysate, overnight at 4°C, NTEN buffer (20 mM Tris pH 7.4, 0.1 mM EDTA, 100 mM NaCl, 0.5% NP-40); both purified.

These are yes or no findings as the source states them, for the method shown. Binding seen in cells or lysates may run through a third protein. For some of these results: Binding can be weak; no strength is given.

“γ-tubulin (endogenous) (from UniProt P23258)”: the binding entry in assay [1] is given as “binds”; in assay [2], “binds”; in assay [3], “no binding”; in assay [4], “no binding”; in [5], “binds”; in [6], “binds”. The binding result in assay [7] was “binds”; in assay [8], “no binding”; in assay [9], “no binding”; in assay [10], “no binding”; in [11], “binds”; in assay [12], “binds”. Moreover, the binding result in assay [13] is on record as “no binding”; in assay [14], “no binding”; in [15], “binds”; in assay [16] it was “binds”; in [17], “binds”; in [18] it was “binds”.
Consider “His-tagged γ-tubulin (from UniProt P23258)”, for which, in assay [19], the binding result was “binds”.
